Test results taken from PMC12102760.
These are yes or no findings as the source states them, for the method shown. Some binding calls cover weakened binding; strength is not graded here.

Amino acid sequences for entries named in this document (tags omitted). Residues count along the entry.
UniProt P29317, residues 24-537: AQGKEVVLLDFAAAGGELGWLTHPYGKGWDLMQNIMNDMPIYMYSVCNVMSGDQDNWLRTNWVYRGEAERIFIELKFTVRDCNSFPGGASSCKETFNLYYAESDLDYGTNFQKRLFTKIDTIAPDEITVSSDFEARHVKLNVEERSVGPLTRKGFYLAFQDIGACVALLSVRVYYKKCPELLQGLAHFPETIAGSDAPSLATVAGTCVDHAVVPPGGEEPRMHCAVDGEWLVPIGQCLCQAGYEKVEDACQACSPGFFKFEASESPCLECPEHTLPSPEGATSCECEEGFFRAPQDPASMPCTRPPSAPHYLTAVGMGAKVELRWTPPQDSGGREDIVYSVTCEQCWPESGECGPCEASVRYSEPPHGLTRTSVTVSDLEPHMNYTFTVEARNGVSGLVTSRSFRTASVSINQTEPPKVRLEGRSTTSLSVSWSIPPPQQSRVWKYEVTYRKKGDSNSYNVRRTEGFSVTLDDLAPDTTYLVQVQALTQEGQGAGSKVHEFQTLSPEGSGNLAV
UniProt P20827, residues 19-182: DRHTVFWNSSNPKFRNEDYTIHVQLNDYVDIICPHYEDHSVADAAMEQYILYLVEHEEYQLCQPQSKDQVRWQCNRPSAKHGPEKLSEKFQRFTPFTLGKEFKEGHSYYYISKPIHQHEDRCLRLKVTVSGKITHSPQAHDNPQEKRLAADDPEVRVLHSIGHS

Target: EphA2 extracellular domain (ECD) (human) (UniProt P29317)
Assay: SEC; IgG:EphA2 1:2.5 molar (DFF F1:EphA2 1:5), on ice 30 min, PBS pH 7.0, Superose 6 Increase 10/300 GL; legend: 200 nM IgG or EfnA1-Fc, 100 nM DFF, 500 nM EphA2; both purified

binding: binds
Substance: EfnA1-Fc (from UniProt P20827 19-182) (Fc fusion)
